Experimental data reported in patent publication US20260266848A1, “COMPOSITIONS AND METHODS FOR DIAGNOSING AND TREATING DYSTONIA” (Duke University, priority 2023, published 2026).

B1: TUBB1 (protein, UniProt Q9H4B7 1-451, looked up)
Tubulin beta-1 chain: MREIVHIQIGQCGNQIGAKFWEMIGEEHGIDLAGSDRGASALQLERISVYYNEAYGRKYVPRAVLVDLEPGTMDSIRSSKLGALFQPDSFVHGNSGAGNNWAKGHYTEGAELIENVLEVVRHESESCDCLQGFQIVHSLGGGTGSGMGTLLMNKIREEYPDRIMNSFSVMPSPKVSDTVVEPYNAVLSIHQLIENADACFCIDNEALYDICFRTLKLTTPTYGDLNHLVSLTMSGITTSLRFPGQLNADLRKLAVNMVPFPRLHFFMPGFAPLTAQGSQQYRALSVAELTQQMFDARNTMAACDLRRGRYLTVACIFRGKMSTKEVDQQLLSVQTRNSSCFVEWIPNNVKVAVCDIPPRGLSMAATFIGNNTAIQEIFNRVSEHFSAMFKRKAFVHWYTSEGMDINEFGEAENNIHDLVSEYQQFQDAKAVLEEDEEVTEEAEMEPEDKGH
B2: ZYX (protein, UniProt Q15942 2-572, looked up)
Zyxin: AAPRPSPAISVSVSAPAFYAPQKKFGPVVAPKPKVNPFRPGDSEPPPAPGAQRAQMGRVGEIPPPPPEDFPLPPPPLAGDGDDAEGALGGAFPPPPPPIEESFPPAPLEEEIFPSPPPPPEEEGGPEAPIPPPPQPREKVSSIDLEIDSLSSLLDDMTKNDPFKARVSSGYVPPPVATPFSSKSSTKPAAGGTAPLPPWKSPSSSQPLPQVPAPAQSQTQFHVQPQPQPKPQVQLHVQSQTQPVSLANTQPRGPPASSPAPAPKFSPVTPKFTPVASKFSPGAPGGSGSQPNQKLGHPEALSAGTGSPQPPSFTYAQQREKPRVQEKQHPVPPPAQNQNQVRSPGAPGPLTLKEVEELEQLTQQLMQDMEHPQRQNVAVNELCGRCHQPLARAQPAVRALGQLFHIACFTCHQCAQQLQGQQFYSLEGAPYCEGCYTDTLEKCNTCGEPITDRMLRATGKAYHPHCFTCVVCARPLEGTSFIVDQANRPHCVPDYHKQYAPRCSVCSEPIMPEPGRDETVRVVALDKNFHMKCYKCEDCGKPLSIEADDNGCFPLDGHVLCRKCHTARAQT
B3: RBM3 (protein, UniProt P98179 1-157, looked up)
RNA-binding protein 3: MSSEEGKLFVGGLNFNTDEQALEDHFSSFGPISEVVVVKDRETQRSRGFGFITFTNPEHASVAMRAMNGESLDGRQIRVDHAGKSARGTRGGGFGAHGRGRSYSRGGGDQGYGSGRYYDSRPGGYGYGYGRSRDYNGRNQGGYDRYSGGNYRDNYDN
B4: ILK (protein, UniProt Q13418 1-452, looked up)
Scaffold protein ILK: MDDIFTQCREGNAVAVRLWLDNTENDLNQGDDHGFSPLHWACREGRSAVVEMLIMRGARINVMNRGDDTPLHLAASHGHRDIVQKLLQYKADINAVNEHGNVPLHYACFWGQDQVAEDLVANGALVSICNKYGEMPVDKAKAPLRELLRERAEKMGQNLNRIPYKDTFWKGTTRTRPRNGTLNKHSGIDFKQLNFLTKLNENHSGELWKGRWQGNDIVVKVLKVRDWSTRKSRDFNEECPRLRIFSHPNVLPVLGACQSPPAPHPTLITHWMPYGSLYNVLHEGTNFVVDQSQAVKFALDMARGMAFLHTLEPLIPRHALNSRSVMIDEDMTARISMADVKFSFQCPGRMYAPAWVAPEALQKKPEDTNRRSADMWSFAVLLWELVTREVPFADLSNMEIGMKVALEGLRPTIPPGISPHVCKLMKICMNEDPAKRPKFDMIVPILEKMQDK
B5: PRSS3 (protein, UniProt P35030 81-304, looked up)
Trypsin-3: IVGGYTCEENSLPYQVSLNSGSHFCGGSLISEQWVVSAAHCYKTRIQVRLGEHNIKVLEGNEQFINAAKIIRHPKYNRDTLDNDIMLIKLSSPAVINARVSTISLPTTPPAAGTECLISGWGNTLSFGADYPDELKCLDAPVLTQAECKASYPGKITNSMFCVGFLEGGKDSCQRDSGGPVVCNGQLQGVVSWGHGCAWKNRPGVYTKVYNYVDWIKDTIAANS

What follows are molecules tested on DYT1 patient plasma derived EVs (assay: Plasma-derived EV proteomics (ExoQuick ULTRA, DIA LC/MS/MS), DYT1 vs Healthy Controls). Details: DYT1 patients as compared to healthy controls.
Set-up: species or system human
In short: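 Quantitative LC/MS/MS in data-independent acquisition on an Orbitrap Astral (4 m/z windows over m/z 380-980, HCD 27%), 500 ng of each EV sample. EVs were isolated from plasma by ExoQuick ULTRA, separated by EvoSep SPD30 gradient at 50 C.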

| Molecule | Log2FC |
| --- | --- |
| B1 | 1.1985 |
| B2 | 0.9322 |
| B3 | −1.3483 |
| B4 | 1.1474 |
| B5 | −0.2795 |

Same assay, conditions: Hs. Plasma EVs (DYT1/WT)

| Molecule | Directionality |
| --- | --- |
| B3 | DOWN |

Same assay, conditions: Hs. Plasma EVs (DYT1/WT); protein level, human patient derived EVs by genotype

| Molecule | Log2_FC |
| --- | --- |
| B1 | 1.199 |
| B2 | 0.9322 |
| B3 | -1.348 |

Same assay, conditions: directionality of protein change, human plasma derived EVs, DYT1 vs WT(HC)

| Molecule | Hs. Plasma EVs (DYT1/WT) |
| --- | --- |
| B3 | DOWN |

Same assay, conditions: protein abundance, DYT1 patients

| Molecule | Mean DYT1 |
| --- | --- |
| B1 | 6.368 |
| B2 | 4.425 |
| B3 | 3.694 |
| B4 | 7.193 |
| B5 | 8.821 |

Same assay, conditions: protein abundance, healthy controls (HC)

| Molecule | Mean HC |
| --- | --- |
| B1 | 5.17 |
| B2 | 3.49 |
| B3 | 5.04 |
| B4 | 6.05 |
| B5 | 9.10 |
